Patent US20190191675A1
No constants are given. Whether binding was seen depends on the method and setting. Binding seen in cells or lysates may run through a third protein. Some binding calls cover weakened binding; strength is not graded here. Tags and fused reporters may be left off the sequences shown.

By UniProt entry, the sequences of proteins in these tests, tags left out.
UniProt Q8C147: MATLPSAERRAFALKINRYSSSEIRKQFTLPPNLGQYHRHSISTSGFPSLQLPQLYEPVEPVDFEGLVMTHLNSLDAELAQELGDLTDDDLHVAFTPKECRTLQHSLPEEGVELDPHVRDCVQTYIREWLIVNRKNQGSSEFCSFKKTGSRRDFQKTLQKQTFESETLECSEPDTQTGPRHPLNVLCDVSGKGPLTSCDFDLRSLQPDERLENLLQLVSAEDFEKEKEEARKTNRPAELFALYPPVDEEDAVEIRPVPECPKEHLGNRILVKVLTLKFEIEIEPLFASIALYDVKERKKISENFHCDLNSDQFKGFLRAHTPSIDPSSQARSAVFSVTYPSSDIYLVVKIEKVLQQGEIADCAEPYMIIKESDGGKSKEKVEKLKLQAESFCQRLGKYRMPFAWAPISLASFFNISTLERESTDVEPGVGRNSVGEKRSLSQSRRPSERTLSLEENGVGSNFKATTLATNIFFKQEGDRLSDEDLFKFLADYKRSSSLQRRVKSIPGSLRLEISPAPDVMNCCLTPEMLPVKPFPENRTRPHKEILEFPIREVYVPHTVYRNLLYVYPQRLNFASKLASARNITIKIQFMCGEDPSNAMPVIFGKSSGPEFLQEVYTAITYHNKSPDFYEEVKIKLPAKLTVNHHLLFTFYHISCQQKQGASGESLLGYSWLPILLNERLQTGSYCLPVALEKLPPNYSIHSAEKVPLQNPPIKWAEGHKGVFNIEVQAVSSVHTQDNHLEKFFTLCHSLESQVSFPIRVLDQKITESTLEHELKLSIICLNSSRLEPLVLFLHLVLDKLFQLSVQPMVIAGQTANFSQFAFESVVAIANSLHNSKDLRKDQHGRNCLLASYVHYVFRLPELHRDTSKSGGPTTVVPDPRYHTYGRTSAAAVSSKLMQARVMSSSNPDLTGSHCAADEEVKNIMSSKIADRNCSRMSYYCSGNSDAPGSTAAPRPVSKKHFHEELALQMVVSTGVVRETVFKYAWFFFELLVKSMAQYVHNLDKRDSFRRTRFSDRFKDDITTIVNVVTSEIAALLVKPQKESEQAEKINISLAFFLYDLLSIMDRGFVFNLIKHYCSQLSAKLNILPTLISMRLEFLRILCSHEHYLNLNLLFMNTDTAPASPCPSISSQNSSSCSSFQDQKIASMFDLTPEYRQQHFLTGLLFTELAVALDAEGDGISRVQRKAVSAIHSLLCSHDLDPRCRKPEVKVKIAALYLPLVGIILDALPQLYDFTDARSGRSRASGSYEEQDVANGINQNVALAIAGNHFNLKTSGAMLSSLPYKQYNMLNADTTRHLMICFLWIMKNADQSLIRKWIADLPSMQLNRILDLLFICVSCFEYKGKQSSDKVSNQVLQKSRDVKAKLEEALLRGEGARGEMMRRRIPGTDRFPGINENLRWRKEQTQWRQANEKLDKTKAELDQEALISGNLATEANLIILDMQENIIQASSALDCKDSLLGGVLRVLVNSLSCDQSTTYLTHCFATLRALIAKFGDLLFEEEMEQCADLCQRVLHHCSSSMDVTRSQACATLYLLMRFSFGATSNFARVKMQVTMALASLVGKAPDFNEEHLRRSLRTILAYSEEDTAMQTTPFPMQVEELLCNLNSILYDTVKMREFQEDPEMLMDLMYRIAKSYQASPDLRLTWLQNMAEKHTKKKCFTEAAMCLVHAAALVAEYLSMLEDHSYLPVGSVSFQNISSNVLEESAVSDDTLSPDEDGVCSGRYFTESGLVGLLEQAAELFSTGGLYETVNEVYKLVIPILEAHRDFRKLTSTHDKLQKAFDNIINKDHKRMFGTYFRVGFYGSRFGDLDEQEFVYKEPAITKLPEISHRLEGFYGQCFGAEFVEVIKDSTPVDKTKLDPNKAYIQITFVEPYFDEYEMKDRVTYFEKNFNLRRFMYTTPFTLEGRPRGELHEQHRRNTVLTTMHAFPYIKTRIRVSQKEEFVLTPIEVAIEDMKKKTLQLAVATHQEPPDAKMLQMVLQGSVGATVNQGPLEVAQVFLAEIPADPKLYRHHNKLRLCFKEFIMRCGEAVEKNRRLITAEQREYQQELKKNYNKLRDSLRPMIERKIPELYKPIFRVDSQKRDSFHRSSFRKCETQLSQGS

How the values were obtained:
[1] = molecular target: T1, FLAG-tagged or V5-tagged mouse MST1 (pcDNA-MST1) (mouse) (UniProt Q9JI11); test: co-immunoprecipitation, FIG. 36(a)
T1 sequence (looked up): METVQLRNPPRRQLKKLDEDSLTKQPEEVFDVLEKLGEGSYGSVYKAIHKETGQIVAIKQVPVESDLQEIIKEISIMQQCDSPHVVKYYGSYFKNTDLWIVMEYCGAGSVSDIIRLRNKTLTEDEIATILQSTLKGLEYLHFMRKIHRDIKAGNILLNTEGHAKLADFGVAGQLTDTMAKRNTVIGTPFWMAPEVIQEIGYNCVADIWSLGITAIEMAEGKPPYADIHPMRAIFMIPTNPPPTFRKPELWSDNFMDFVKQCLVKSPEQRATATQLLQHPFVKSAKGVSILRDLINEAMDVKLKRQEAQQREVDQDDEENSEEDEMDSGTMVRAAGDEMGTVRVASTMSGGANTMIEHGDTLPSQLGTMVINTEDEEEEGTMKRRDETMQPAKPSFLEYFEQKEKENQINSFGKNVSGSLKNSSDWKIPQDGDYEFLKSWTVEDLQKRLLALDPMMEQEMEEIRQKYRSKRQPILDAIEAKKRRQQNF

[2] = molecular target: T1, FLAG-tagged or V5-tagged mouse MST1 (pcDNA-MST1) (mouse); test: search for binding proteins; co-immunoprecipitation

binding [1]: binds
binding [2]: binds
Substance: HA-tagged mouse DOCK8 (pcDNA-DOCK8) (from UniProt Q8C147 1-2100)
